T/C and survivor count data for 5 molecules are collected here from PubChem BioAssay AID330 (DTP/NCI, 2004).

In the test the test system is P388 leukemia ip, CD2F1 mice, survival T/C. Put plainly: NCI In Vivo Anticancer Drug Screen. Data for tumor model P388 Leukemia (intraperitoneal) in CD2F1 (CDF1) mice. As to conditions: T/C endpoint: median survival time, higher T/C = longer survival.
[1] abbreviates: dose: 6.25 mg/kg/injection, schedule: Q01DX009 (ip), vehicle: saline.
Where [2] appears, read: dose: 12.5 mg/kg/injection, schedule: Q01DX009 (ip), vehicle: saline.
Setting [3] is: dose: 25.0 mg/kg/injection, schedule: Q01DX009 (ip), vehicle: saline.
Setting [4] is: dose: 50.0 mg/kg/injection, schedule: Q01DX009 (ip), vehicle: saline with Tween-80.
Where [5] appears, read: dose: 100.0 mg/kg/injection, schedule: Q01DX009 (ip), vehicle: saline with Tween-80.
Setting [6] is: dose: 100.0 mg/kg/injection, schedule: Q01DX009 (ip), vehicle: saline.

The list does not hold the whole screen: it gathers some chemical classes. Not every dose and run of a compound is shown. T/C: endpoint of the treated group in % of that of the vehicle group. Some doses have a count of surviving animals in place of a T/C: the source holds a T/C of zero for them, seemingly a mark for toxic or unscored doses. Survivors were counted at the toxicity check, usually on the fifth day, unless a day is given; later deaths do not show. Schedule codes are those of the source, read here as Q, the interval in days (D) or hours (H), X, the number of doses. For survival time, this PubChem deposit counts one and a half times the control or more as active, and values a quarter to a half above the control carry no call in these data; other NCI protocols may use other cut-offs. Some entries hold several experiments; the values are given in rising order. Some entries show no survivor count and are marked so; the dose need not have been tolerated.

`NP(=O)(OCc1ccccc1)N(CCCl)CCCl` (stereo not drawn): the T/C reads like this: under setting [1], 113 % of control [survivor count not shown]; under setting [2], 113 % of control [survivor count not shown]; (dose: 25.0 mg/kg/injection, schedule: Q01DX009 (ip), vehicle: saline with Tween-80) 109 % of control [survivor count not shown]; under setting [3], 145 % of control [survivor count not shown]; under setting [4], 122 % of control [survivor count not shown]; under setting [5], 136 % of control [survivor count not shown].

For `O=Cc1ccc(N(CCCl)CCCl)cc1`, the T/C under setting [4] was 100 [survivor count not shown] and 103 % of control [survivor count not shown]; the T/C under setting [5] is 120 [survivor count not shown] and 143 % of control [survivor count not shown]; the T/C (dose: 200.0 mg/kg/injection, schedule: Q01DX009 (ip), vehicle: saline with Tween-80) is 156 [survivor count not shown] and 171 % of control [survivor count not shown].

Turning to `Oc1cc(O)cc(N(CCCl)CCCl)c1`, the T/C by setting is: (dose: 3.12 mg/kg/injection, schedule: Q01DX009 (ip), vehicle: saline) 100 and 125 % of control; under setting [1], 90 and 144 % of control; under setting [2], 93 and 145 % of control; under setting [3], 90 and 163 % of control; (dose: 25.0 mg/kg/injection, schedule: Q01DX009 (ip), vehicle: water) 143 % of control [survivor count not shown]; (dose: 50.0 mg/kg/injection, schedule: Q01DX009 (ip), vehicle: water) 151 % of control [survivor count not shown]. The T/C is 87 % of control under setting [6] and 164 % of control [survivor count not shown] (dose: 100.0 mg/kg/injection, schedule: Q01DX009 (ip), vehicle: water).

Consider `Cc1cccc(C)n1.O=S(=O)(O)Oc1ccc(N(CCCl)CCCl)cc1`, for which the T/C by setting is: (dose: 50.0 mg/kg/injection, schedule: Q01DX001 (ip), vehicle: Klucel (hydroxypropylcellulose) (HPC)) 130 % of control [survivor count not shown]; (dose: 100.0 mg/kg/injection, schedule: Q01DX001 (ip), vehicle: Klucel (hydroxypropylcellulose) (HPC)) 148 % of control [survivor count not shown]; (dose: 200.0 mg/kg/injection, schedule: Q01DX001 (ip), vehicle: Klucel (hydroxypropylcellulose) (HPC)) 151 % of control [survivor count not shown].

Take `CC(C)N1CCC(N(C(=O)Cc2ccccc2)c2ccc(Cl)cc2)CC1`: the T/C (dose: 50.0 mg/kg/injection, schedule: Q01DX009 (ip), vehicle: saline) was 97 % of control and the T/C under setting [6] was 100 % of control. Also, the survivor count (dose: 200.0 mg/kg/injection, schedule: Q01DX009 (ip), vehicle: saline) was 0 of 6.
